Counter-ions that a name gives are not always drawn. ± gives the standard deviation of the averaged measurements. The list shows a part of the results. Single values are uncertain, as repeats are few or missing.

The test system of this assay is RAW 264.7. Kind of assay: HMGB1-induced TNF-alpha production relative to HMGB1-stimulated control; higher = more TNF-alpha secretion (less inhibition). As to conditions: stimulus: HMGB1 5 ug/ml, 18 h.
The mark [1] stands for this setting: compound concentration: 1 ug/ml.

Regarding `NCCc1c[nH]cn1` [Histamine dihydrochloride], the “HMGB1-induced TNF-alpha production” value (compound concentration: 3 uM) was 81.8%.
Turning to `NCCc1c[nH]cn1` [Histamine Dihydrochloride], under setting [1], the “HMGB1-induced TNF-alpha production” value worked out at 78.7%.
As to `NCCc1c[nH]cn1`, the “HMGB1-induced TNF-alpha production” value (compound concentration: 3 uM) was determined as 87.7%.
On the same count and under the same terms, to `CCCOc1cc(N)ccc1C(=O)OCCN(CC)CC` [Propoxycaine hydrochloride] belongs 116%; to `OC(Cn1cncn1)(Cn1cncn1)c1ccc(F)cc1F`, 76.1%; to `OC(Cn1cncn1)(Cn1cncn1)c1ccc(F)cc1F` [Fluconazole], 92.1 ± 11%.
Regarding `Cc1cn([C@H]2C[C@H](O)[C@@H](C)O2)c(=O)[nH]c1=O` [5'-Deoxythymidine], the “HMGB1-induced TNF-alpha production” value under setting [1] is 74.2%.
Regarding `Nc1[nH]cnc2ncnc1-2`, the “HMGB1-induced TNF-alpha production” value (compound concentration: 3 uM) was found to be 93.7%.
Still for that read-out and setting: to `CC(=O)[C@@]1(O)CC[C@H]2[C@@H]3C=C(Cl)C4=CC(=O)[C@@H]5C[C@@H]5[C@]4(C)[C@H]3CC[C@@]21C` belongs 80.3%.
Still for that read-out and setting: the result for `CO[C@@H]1[C@@H](O[C@@H]2O[C@H](C)[C@@H](O[C@H]3C[C@@](C)(O)[C@@H](OC(=O)CC(C)C)[C@H](C)O3)[C@H](N(C)C)[C@H]2O)[C@@H](CC=O)C[C@@H](C)[C@@H](O)/C=C/C=C/C[C@@H](C)OC(=O)C[C@H]1O` reads 119%.
Still for that read-out and setting: the result for `CC[N+](C)(C)c1cccc(O)c1` [Edrophonium chloride] reads 84 ± 18%.
For the molecule `CC[N+](C)(C)c1cccc(O)c1`, for the setting “compound concentration: 3 uM”, the “HMGB1-induced TNF-alpha production” value is 103%.
On the same count and under the same terms, to `OCCN1CCN(CC/C=C2/c3ccccc3Sc3ccc(C(F)(F)F)cc32)CC1` [cis-(Z)-Flupenthixol dihydrochloride] belongs 61%.
In the case of `OC[C@H]1O[C@@H](n2cnc3c(O)nc(O)nc32)[C@H](O)[C@@H]1O` [Xanthosine dihydrate], the “HMGB1-induced TNF-alpha production” value under setting [1] came to 73.1%.
With `Cc1cn[nH]c1`, where the note is “compound concentration: 3 uM”, the “HMGB1-induced TNF-alpha production” value was 78.9%.
Still for that read-out and setting: the result for `Cc1cn[nH]c1` [4-Methylpyrazole hydrochloride] reads 105%; that for `CC(=O)OCC(=O)[C@@]1(O)CC[C@H]2[C@@H]3CCC4=CC(=O)C=C[C@]4(C)[C@@]3(Cl)[C@@H](Cl)C[C@@]21C`, 38.2%; that for `CC[N+](C)(CC)CCOC(=O)C1c2ccccc2Oc2ccccc21` [Methantheline bromide], 133%.
The same measure, in the same setting: the result for `O=C(O)CN1C(=O)c2cccc3cccc(c23)C1=O` reads 90.7%.
Still for that read-out and setting: to `CCCCN(CCCC)CCCOC(=O)c1ccc(N)cc1` [Butacaine] belongs 96.6%; to `CCCCN(CCCC)CCCOC(=O)c1ccc(N)cc1`, 92.8%; to `Cc1ccc(C(=O)c2ccc(CC(=O)O)n2C)cc1` [Tolmetin], 86.8%.
In the case of `Cc1ccc(C(=O)c2ccc(CC(=O)O)n2C)cc1`, the “HMGB1-induced TNF-alpha production” value (compound concentration: 3 uM) stood at 89.9%.
Consider `Cc1ccc(C(=O)c2ccc(CC(=O)O)n2C)cc1` [Tolmetin sodium salt dihydrate], for which the “HMGB1-induced TNF-alpha production” value (compound concentration: 3 uM) was 85.1%.
Same read-out and setting: to `COC(=O)Nc1nc2cc(C(=O)c3cccs3)ccc2[nH]1` [Nocodazole] belongs 82 ± 9.6%; to `COC(=O)Nc1nc2cc(C(=O)c3cccs3)ccc2[nH]1`, 83.6%.
Consider `CC(=O)OCC(=O)[C@@]1(O)CC[C@H]2[C@@H]3CCC4=CC(=O)CC[C@]4(C)[C@@]3(F)[C@@H](O)C[C@@]21C` [Fludrocortisone acetate], for which the “HMGB1-induced TNF-alpha production” value (compound concentration: 3 uM) was 29.5%.
On the same count and under the same terms, to `CC(=O)OCC(=O)[C@@]1(O)CC[C@H]2[C@@H]3CCC4=CC(=O)CC[C@]4(C)[C@@]3(F)[C@@H](O)C[C@@]21C` belongs 43.8%; to `O=C(O)CCCCCCCC(=O)O` [Azelaic acid], 99.1%; to `O=C(O)CCCCCCCC(=O)O`, 90.6 ± 2.4%.
Still for that read-out and setting: to `CC(=Cc1ccc(C(=O)O)cc1)c1ccc2c(c1)C(C)(C)CCC2(C)C` belongs 126%; to `NS(=O)(=O)c1cc(C2(O)NC(=O)c3ccccc32)ccc1Cl` (stereo not given) [Chlorthalidone], 63.6%; to `NS(=O)(=O)c1cc(C2(O)NC(=O)c3ccccc32)ccc1Cl` (stereo not given), 85.2%.
The same measure, in the same setting: to `CCCCCCCCCCCCCCCC(=O)OC/C=C(C)/C=C/C=C(C)/C=C/C1=C(C)CCCC1(C)C` belongs 53.1%; to `C=CC(N)CCC(=O)O` (stereo not given), 82%.
On to `C=CC(N)CCC(=O)O` (stereo not given) [Vigabatrin], for which the “HMGB1-induced TNF-alpha production” value (compound concentration: 3 uM) was 61.7%.
On the same count and under the same terms, to `Cc1ncc(C[n+]2csc(CCO)c2C)c(N)n1` belongs 85.2%.
For `CC(C)c1c(C(=O)Nc2ccccc2)c(-c2ccccc2)c(-c2ccc(F)cc2)n1CC[C@@H](O)C[C@@H](O)CC(=O)O`, the “HMGB1-induced TNF-alpha production” value (compound concentration: 3 uM) came out at 70.7%.
For `CC(C)c1c(C(=O)Nc2ccccc2)c(-c2ccccc2)c(-c2ccc(F)cc2)n1CC[C@@H](O)C[C@@H](O)CC(=O)O` [Atorvastatin], under “compound concentration: 3 uM”, the “HMGB1-induced TNF-alpha production” value came to 103%.
The same measure, in the same setting: the result for `CN(C)CCC(c1ccc(Cl)cc1)c1ccccn1` (racemic) [(±)-Chlorpheniramine maleate] reads 80.5%; that for `CC(=O)OCC(=O)[C@@]1(O)CC[C@H]2[C@@H]3CCC4=CC(=O)CC[C@]4(C)[C@H]3[C@@H](O)C[C@@]21C` [Cortisol acetate], 47.4%; that for `CC(=O)OCC(=O)[C@@]1(O)CC[C@H]2[C@@H]3CCC4=CC(=O)CC[C@]4(C)[C@H]3[C@@H](O)C[C@@]21C`, 51.4%.
Same read-out and setting: to `CC(=O)OCC(=O)[C@@]1(O)CC[C@H]2[C@@H]3CCC4=CC(=O)CC[C@]4(C)[C@H]3[C@@H](O)C[C@@]21C` [Hydrocortisone 21-acetate] belongs 53.1%; to `CCN[C@H]1CN(CCCOC)S(=O)(=O)c2sc(S(N)(=O)=O)cc21` [Brinzolamide], 54.1%.
As for `CC(=O)S[C@@H]1CC2=CC(=O)CC[C@]2(C)[C@H]2CC[C@@]3(C)[C@@H](CC[C@@]34CCC(=O)O4)[C@H]12` [Spironolactone], the “HMGB1-induced TNF-alpha production” value (compound concentration: 3 uM) is 91.5 ± 36%.
Still for that read-out and setting: to `CC(=O)S[C@@H]1CC2=CC(=O)CC[C@]2(C)[C@H]2CC[C@@]3(C)[C@@H](CC[C@@]34CCC(=O)O4)[C@H]12` belongs 83.2%; to `CC(C)(C)NCC(O)COc1cccc2[nH]c(=O)[nH]c12` (racemic), 80.2%.
As for `COc1ccccc1-c1oc2ccccc2c(=O)c1OC`, the “HMGB1-induced TNF-alpha production” value under setting [1] came out at 74.5%.
As to `CCCc1cc(C(N)=S)ccn1`, the “HMGB1-induced TNF-alpha production” value (compound concentration: 3 uM) turned out to be 98.7%.
Take `CCCc1cc(C(N)=S)ccn1` [Prothionamide]: the “HMGB1-induced TNF-alpha production” value (compound concentration: 3 uM) came out at 87.3 ± 2.1%.
Turning to `COc1cc(-c2oc3c(O)c(OC4OC(COC(C)=O)C(O)C(O)C4OC4OC(C)C(O)C(O)C4O)cc(O)c3c(=O)c2O)ccc1O` (stereo not given) [Haploside D], the “HMGB1-induced TNF-alpha production” value under setting [1] amounted to 80.2%.
Consider `CC(Cc1cccc(C(F)(F)F)c1)NCCOC(=O)c1ccccc1` (stereo not given), for which the “HMGB1-induced TNF-alpha production” value (compound concentration: 3 uM) was determined as 80%.
The same measure, in the same setting: the result for `CC(Cc1cccc(C(F)(F)F)c1)NCCOC(=O)c1ccccc1` (stereo not given) [Benfluorex hydrochloride] reads 50.6%; that for `C=C1CC[C@H](O)C/C1=C/C=C1\CCC[C@]2(C)[C@@H]([C@H](C)CCCC(C)C)CC[C@@H]12` [Cholecalciferol], 69.6%; that for `C=C1CC[C@H](O)C/C1=C/C=C1\CCC[C@]2(C)[C@@H]([C@H](C)CCCC(C)C)CC[C@@H]12`, 83.2%.

The record behind these values is the supplement of paper PMC3682954.
